# From PMC4207412, “Secondary Structural Preferences of Some Antibacterial Cyclooctapeptides in the Presence of Calcium(II)” (International Journal of Medicinal Chemistry, 2012)
# What was measured:
# [1] = Isothermal titration calorimetry of Ca2+ binding in 10% acetonitrile in water; conditions: ITC, 30°C, no DPC, mean of three experiments ± standard error mean
# Experimental: (§1) Microcalorimetric titrations of peptides with metal ions were conducted by isothermal titration microcalorimetry (ITC) using a Microcal VP-ITC Instrument (Northampton, MA, USA). Experiments were carried out at 30°C in 10% acetonitrile in water. The peptide concentration was 0.15 or 0.30 mM (1.34 mL sample cell), and the metal ion [Ca(ClO4)2] concentration was varied from 9 to 15 mM in the syringe. Automated titrations were conducted until saturation, up to a Ca^2+/peptide mole ratio of about 12 : 1. Heats of dilution and mixing for each experiment were measured by titrating calcium(II) solution into 10% acetonitrile solution. The effective heat of each peptide and calcium(II) interaction was corrected for dilution and mixing effects by subtracting the enthalpy change derived from the titration of calcium(II) solution into the 10% acetonitrile solution without the peptide. In a similar way, ITC experiments were carried out at 30°C in 10% aqueous acetonitrile containing 10 mM DPC. These heats of bimolecular interactions were obtained by integrating the peak following each injection of calcium(II). The binding isotherms were derived from the raw ITC data following correction for dilution and mixing effects. These isotherms were fitted using the one-site model by a nonlinear least square analysis with Microcal Origin 7.0 software (Microcal Software, Inc., Northampton, MA, USA) to determine the molar enthalpy change for binding, ΔH, and the corresponding binding constant, K b. From these values, the thermodynamic characterization of the interaction at 30°C was determined from the fundamental equations of thermodynamics, ΔG = −RT ln K b and ΔS = (ΔH − ΔG)/T.
# [2] = Isothermal titration calorimetry of Ca2+ binding in micellar DPC (10 mM); conditions: ITC, 30°C, 10% aqueous acetonitrile containing 10 mM micellar DPC, mean of three experiments ± standard error mean
# Experimental: as §1
# In order to mimic the hydrophobic environment of the bacterial membrane that antimicrobial peptides commonly target, the interactions of these cyclopeptides with calcium(II) were also conducted in the presence of micellar dodecylphosphocholine (DPC). […] However, their association is compensated by an increase in entropy (ΔS values range from ca. 42.7 to 66.5 JK^−1 mol^−1). […]
smiles,measurement,setting,value
CC(C)C[C@@H]1NC(=O)[C@@H](CC(C)C)NC(=O)[C@H](CCC(=O)O)NC(=O)[C@@H](CCCCN)NC(=O)[C@H](CCCCN)NC(=O)[C@@H](CCCCN)NC(=O)[C@H](CCCCN)NC(=O)[C@@H](CC(C)C)NC1=O [COP 4] (cyclo(E[dL]L[dL]K[dK]K[dK])),Change in enthalpy ΔH,[1]; one-site model,-11.3 ± 1.3 kJ/mol
same,Change in Gibbs free energy ΔG,[1]; ΔG = −RT ln K b,-20.1 ± 0.8 kJ/mol
same,Change in entropy ΔS,[1]; ΔS = (ΔH − ΔG)/T,28.9 ± 4.6 J K^−1 mol^−1
same,Change in enthalpy ΔH,[2]; one-site model,-1.7 ± 0.1 kJ/mol
same,Change in Gibbs free energy ΔG,[2]; ΔG = −RT ln K b,-21.3 ± 0.8 kJ/mol
same,Change in entropy ΔS,[2]; ΔS = (ΔH − ΔG)/T,64.9 ± 2.1 J K^−1 mol^−1

# Square brackets hold non-standard residues; d marks the D form. Peptide text beside a SMILES is read from it.
